From PMC6670220
These are yes or no findings as the source states them, for the method shown. In cells and extracts the contact can be indirect. Some entries that bind do so weakly or less than the wild type.

Sequences of proteins named here, by UniProt entry; tags and fusion partners are left off. A change or cut given only in a name is not applied to a line headed by its entry. A line that says so, or that is headed by a name, gives the form on record, which may keep a tag or linker.
UniProt P35222: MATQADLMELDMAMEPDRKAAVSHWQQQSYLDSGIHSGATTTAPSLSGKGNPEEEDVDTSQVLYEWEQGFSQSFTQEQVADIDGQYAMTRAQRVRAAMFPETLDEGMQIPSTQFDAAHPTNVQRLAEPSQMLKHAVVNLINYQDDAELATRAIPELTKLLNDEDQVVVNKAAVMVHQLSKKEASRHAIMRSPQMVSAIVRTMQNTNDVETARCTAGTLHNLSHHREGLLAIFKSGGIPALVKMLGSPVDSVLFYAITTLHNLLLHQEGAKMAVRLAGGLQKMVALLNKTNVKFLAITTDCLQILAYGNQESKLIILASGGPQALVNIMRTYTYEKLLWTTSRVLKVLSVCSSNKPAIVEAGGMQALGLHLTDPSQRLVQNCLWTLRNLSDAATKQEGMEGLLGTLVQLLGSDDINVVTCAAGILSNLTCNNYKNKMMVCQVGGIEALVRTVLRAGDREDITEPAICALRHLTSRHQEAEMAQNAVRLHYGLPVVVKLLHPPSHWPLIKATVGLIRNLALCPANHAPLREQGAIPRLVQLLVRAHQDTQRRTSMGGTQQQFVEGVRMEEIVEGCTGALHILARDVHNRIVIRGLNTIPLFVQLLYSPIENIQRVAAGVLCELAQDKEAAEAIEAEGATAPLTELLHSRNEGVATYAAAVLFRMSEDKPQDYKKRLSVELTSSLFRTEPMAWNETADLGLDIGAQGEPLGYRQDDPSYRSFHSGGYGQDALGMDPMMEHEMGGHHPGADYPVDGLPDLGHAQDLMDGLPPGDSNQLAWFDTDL
Runt-related transcription factor 1 (RUNX1) (Q01196-8, form named): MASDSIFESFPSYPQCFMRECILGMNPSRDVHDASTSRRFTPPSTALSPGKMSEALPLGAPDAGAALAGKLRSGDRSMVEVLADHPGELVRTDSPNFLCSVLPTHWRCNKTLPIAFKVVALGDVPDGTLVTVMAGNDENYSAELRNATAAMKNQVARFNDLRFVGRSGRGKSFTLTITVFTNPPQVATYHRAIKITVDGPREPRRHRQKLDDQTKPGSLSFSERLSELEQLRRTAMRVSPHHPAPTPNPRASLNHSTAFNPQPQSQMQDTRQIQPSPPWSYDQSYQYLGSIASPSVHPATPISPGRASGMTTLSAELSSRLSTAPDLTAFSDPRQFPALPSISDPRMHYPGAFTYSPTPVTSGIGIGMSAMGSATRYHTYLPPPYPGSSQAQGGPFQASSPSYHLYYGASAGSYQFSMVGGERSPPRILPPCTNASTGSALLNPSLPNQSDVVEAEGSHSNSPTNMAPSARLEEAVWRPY

Target: β-catenin (human (endogenous in SW480)) (UniProt P35222)
Test: co-IP; in SW480 cells; which protein was precipitated and the conditions are not told

binding: binds
Substance: Runt-related transcription factor 1 (RUNX1) (from UniProt Q01196-8 1-480)
